In US20050223428A1 (published 2005):
Results are given in words; binding and its absence hold for the method and conditions named. Some binding calls cover weakened binding; strength is not graded here. Where a sequence is shown, tags or fusion partners need not be part of it.

Target: T1, RLK5CAT-MBP (kinase domain of RLK5/HAESA fused to maltose binding protein, kinase-active) (UniProt P47735)
T1 sequence (looked up): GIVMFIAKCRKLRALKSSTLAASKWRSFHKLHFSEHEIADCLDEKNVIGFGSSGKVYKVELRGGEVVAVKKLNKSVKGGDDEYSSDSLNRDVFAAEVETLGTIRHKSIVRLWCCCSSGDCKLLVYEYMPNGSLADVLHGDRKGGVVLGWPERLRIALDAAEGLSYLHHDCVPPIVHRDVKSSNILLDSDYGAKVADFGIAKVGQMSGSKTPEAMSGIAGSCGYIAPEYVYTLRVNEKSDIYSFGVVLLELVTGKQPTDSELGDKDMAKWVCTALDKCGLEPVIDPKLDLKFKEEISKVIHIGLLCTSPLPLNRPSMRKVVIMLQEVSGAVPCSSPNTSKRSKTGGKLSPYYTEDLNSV
Assay: far-western dot blot with 32P-labelled GST-KID

binding: binds
B1: GST-KID (kinase interaction domain of Kinase-Associated Protein Phosphatase, KAPP, fused to glutathione S-transferase) (other, UniProt P46014 180-313, looked up)
chain: SWLFLEVIAGPAIGLQHAVNSTSSSKLPVKLGRVSPSDLALKDSEVSGKHAQITWNSTKFKWELVDMGSLNGTLVNSHSISHPDLGSRKWGNPVELASDDIITLGTTTKVYVRISSQNEFQIPFKIGVASDPMA
modifications: labeled with 32P
notes: Plasmid was a gift (John Walker); expressed in E. coli, purified on glutathione-Sepharose, 32P-labelled and used as the probe in the far-western dot blot; also called KAPP KID; radiolabeled KID protein; not shown: glutathione S-transferase (GST) fusion partner
